Test results reported in article PMC10438374.
No constants are given. Whether binding was seen depends on the method and setting. Some binding calls cover weakened binding; strength is not graded here.

Chains of the proteins cited; added tags and fusions are not shown. Lines headed by an entry give the natural chain unless they say otherwise; changes in a name come on top.
UniProt P40692: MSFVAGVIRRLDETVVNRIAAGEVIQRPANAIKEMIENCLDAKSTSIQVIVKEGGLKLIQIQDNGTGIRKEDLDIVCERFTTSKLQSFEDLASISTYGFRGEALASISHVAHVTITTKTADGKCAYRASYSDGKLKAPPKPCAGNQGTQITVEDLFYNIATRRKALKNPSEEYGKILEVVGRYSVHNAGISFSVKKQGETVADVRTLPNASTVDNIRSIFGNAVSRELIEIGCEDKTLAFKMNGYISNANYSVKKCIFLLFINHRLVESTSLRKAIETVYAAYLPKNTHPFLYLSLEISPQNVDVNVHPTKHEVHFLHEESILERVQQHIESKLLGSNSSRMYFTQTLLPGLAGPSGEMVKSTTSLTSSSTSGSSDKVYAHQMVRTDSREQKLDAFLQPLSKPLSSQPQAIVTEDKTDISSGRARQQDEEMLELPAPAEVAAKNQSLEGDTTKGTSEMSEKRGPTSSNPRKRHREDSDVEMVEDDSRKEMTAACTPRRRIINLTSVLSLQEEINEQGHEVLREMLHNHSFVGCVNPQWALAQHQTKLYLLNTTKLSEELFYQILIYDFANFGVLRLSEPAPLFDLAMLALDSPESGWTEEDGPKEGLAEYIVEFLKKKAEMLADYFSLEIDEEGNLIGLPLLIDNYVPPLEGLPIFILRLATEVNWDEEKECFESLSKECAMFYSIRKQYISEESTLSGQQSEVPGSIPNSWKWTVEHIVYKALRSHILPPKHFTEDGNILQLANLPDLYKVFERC
UniProt P54278: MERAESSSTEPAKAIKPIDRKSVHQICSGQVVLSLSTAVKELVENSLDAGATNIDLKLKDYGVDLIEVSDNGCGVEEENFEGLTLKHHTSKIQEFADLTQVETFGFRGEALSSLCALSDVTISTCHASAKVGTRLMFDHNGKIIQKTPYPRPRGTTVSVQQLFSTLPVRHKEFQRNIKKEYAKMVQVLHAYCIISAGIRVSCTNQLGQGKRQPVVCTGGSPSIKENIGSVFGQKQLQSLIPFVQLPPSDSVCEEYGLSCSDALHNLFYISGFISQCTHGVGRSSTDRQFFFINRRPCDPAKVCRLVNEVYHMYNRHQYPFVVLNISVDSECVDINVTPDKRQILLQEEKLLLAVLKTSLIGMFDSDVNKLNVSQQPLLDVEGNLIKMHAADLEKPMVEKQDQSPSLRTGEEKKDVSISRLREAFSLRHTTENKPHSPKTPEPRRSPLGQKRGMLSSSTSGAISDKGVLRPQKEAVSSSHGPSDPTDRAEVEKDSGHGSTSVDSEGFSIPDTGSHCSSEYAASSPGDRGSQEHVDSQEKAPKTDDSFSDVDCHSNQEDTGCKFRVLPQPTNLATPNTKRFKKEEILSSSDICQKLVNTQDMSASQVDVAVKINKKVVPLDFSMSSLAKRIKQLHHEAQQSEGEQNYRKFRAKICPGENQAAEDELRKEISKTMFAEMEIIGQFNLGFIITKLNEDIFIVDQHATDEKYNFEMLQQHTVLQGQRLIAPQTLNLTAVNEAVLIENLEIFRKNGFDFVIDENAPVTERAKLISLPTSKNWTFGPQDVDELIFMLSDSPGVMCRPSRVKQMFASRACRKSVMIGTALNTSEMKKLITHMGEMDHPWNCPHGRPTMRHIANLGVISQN
UniProt P12004: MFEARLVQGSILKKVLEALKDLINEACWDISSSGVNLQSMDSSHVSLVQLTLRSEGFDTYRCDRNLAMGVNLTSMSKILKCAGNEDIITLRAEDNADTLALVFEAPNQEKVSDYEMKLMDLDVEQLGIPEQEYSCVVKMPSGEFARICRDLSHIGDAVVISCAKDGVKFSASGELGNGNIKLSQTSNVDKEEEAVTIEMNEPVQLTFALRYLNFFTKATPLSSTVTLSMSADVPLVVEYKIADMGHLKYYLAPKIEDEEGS

Target: MutLα (MLH1/PMS2 heterodimer), recombinant human (human) (UniProt P40692+P54278)
Assay: far-Western, overlay or dot blot; indicated proteins spotted onto nitrocellulose membrane and incubated with 0.36 µM PCNA overnight; PCNA detected immunochemically; both purified

Q: With “PCNA (proliferating cell nuclear antigen) (from UniProt P12004 1-261)” as the substance, how does the binding read?
A: binds
